Results published in the supplement of paper PMC4862054.
Small differences around the control level are noise.

What was measured:
Test in all cases: normalised response (% of control), CellTox Green; higher = less cell death (100 = DMSO, 0 = benzethonium chloride kill control)
Conditions in all cases: incubation time: 72 h
MCF-10A [1] = system: MCF-10A
Protocol: (§1)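 DSRT, 72 h incubation, CellTox Green / CellTiter-Glo readout. Signal is normalised to DMSO and benzethonium chloride controls. Value is the normalised response at dose 2.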

BT-549 [2] = system: BT-549
Protocol: as §1

HDQ-P1 [3] = system: HDQ-P1
Protocol: as §1

CAL-120 [4] = system: CAL-120
Protocol: as §1

MDA-MB-453 [5] = system: MDA-MB-453
Protocol: as §1

HCC1599 [6] = system: HCC1599
Protocol: as §1

MDA-MB-436 [7] = system: MDA-MB-436
Protocol: as §1

MDA-MB-468 [8] = system: MDA-MB-468
Protocol: as §1

MFM-223 [9] = system: MFM-223
Protocol: as §1

BT-474 [10] = system: BT-474
Protocol: as §1

CAL-85-1 [11] = system: CAL-85-1
Protocol: as §1

CAL-148 [12] = system: CAL-148
Protocol: as §1

HCC1143 [13] = system: HCC1143
Protocol: as §1

DU-4475 [14] = system: DU-4475
Protocol: as §1

MDA-MB-231 [15] = system: MDA-MB-231
Protocol: as §1

CAL-51 [16] = system: CAL-51
Protocol: as §1

Hs578T [17] = system: Hs578T
Protocol: as §1

HCC1937 = system: HCC1937
Protocol: as §1

MCF-10A [18] = system: MCF-10A; remark: listed apart in the source
Protocol: (§2)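 DSRT, 72 h incubation, CellTox Green / CellTiter-Glo readout. Signal is normalised to DMSO and benzethonium chloride controls. Value is the normalised response at the lowest tested concentration.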

BT-549 [19] = system: BT-549; remark: listed apart in the source
Protocol: as §2

HDQ-P1 [20] = system: HDQ-P1; remark: listed apart in the source
Protocol: as §2

CAL-120 [21] = system: CAL-120; remark: listed apart in the source
Protocol: as §2

MDA-MB-453 [22] = system: MDA-MB-453; remark: listed apart in the source
Protocol: as §2

Hs578T [23] = system: Hs578T; remark: listed apart in the source
Protocol: as §2

HCC1599 [24] = system: HCC1599; remark: listed apart in the source
Protocol: as §2

MDA-MB-436 [25] = system: MDA-MB-436; remark: listed apart in the source
Protocol: as §2

MDA-MB-468 [26] = system: MDA-MB-468; remark: listed apart in the source
Protocol: as §2

MFM-223 [27] = system: MFM-223; remark: listed apart in the source
Protocol: as §2

BT-474 [28] = system: BT-474; remark: listed apart in the source
Protocol: as §2

CAL-85-1 [29] = system: CAL-85-1; remark: listed apart in the source
Protocol: as §2

CAL-148 [30] = system: CAL-148; remark: listed apart in the source
Protocol: as §2

HCC1143 [31] = system: HCC1143; remark: listed apart in the source
Protocol: as §2

DU-4475 [32] = system: DU-4475; remark: listed apart in the source
Protocol: as §2

MDA-MB-231 [33] = system: MDA-MB-231; remark: listed apart in the source
Protocol: as §2

CAL-51 [34] = system: CAL-51; remark: listed apart in the source
Protocol: as §2

SMILES	normalised response (MCF-10A [1]) [%]	normalised response (BT-549 [2]) [%]	normalised response (HDQ-P1 [3]) [%]	normalised response (CAL-120 [4]) [%]	normalised response (MDA-MB-453 [5]) [%]	normalised response (HCC1599 [6]) [%]	normalised response (MDA-MB-436 [7]) [%]	normalised response (MDA-MB-468 [8]) [%]	normalised response (MFM-223 [9]) [%]	normalised response (BT-474 [10]) [%]	normalised response (CAL-85-1 [11]) [%]	normalised response (CAL-148 [12]) [%]	normalised response (HCC1143 [13]) [%]	normalised response (DU-4475 [14]) [%]	normalised response (MDA-MB-231 [15]) [%]	normalised response (CAL-51 [16]) [%]	normalised response (Hs578T [17]) [%]	normalised response (HCC1937) [%]	normalised response (MCF-10A [18]) [%]	normalised response (BT-549 [19]) [%]	normalised response (HDQ-P1 [20]) [%]	normalised response (CAL-120 [21]) [%]	normalised response (MDA-MB-453 [22]) [%]	normalised response (Hs578T [23]) [%]	normalised response (HCC1599 [24]) [%]	normalised response (MDA-MB-436 [25]) [%]	normalised response (MDA-MB-468 [26]) [%]	normalised response (MFM-223 [27]) [%]	normalised response (BT-474 [28]) [%]	normalised response (CAL-85-1 [29]) [%]	normalised response (CAL-148 [30]) [%]	normalised response (HCC1143 [31]) [%]	normalised response (DU-4475 [32]) [%]	normalised response (MDA-MB-231 [33]) [%]	normalised response (CAL-51 [34]) [%]
O=C(O)c1ccc(-c2c[nH]c3ncc(-c4ccccc4)cc23)cc1C1CCCC1 (10 nM)	91.7	80.2	88.4	98.2	96.2	95.2	72	85.5	101	97.8	104	104	91.2	93.1	91.7	93.8	–	–	–	–	–	–	–	–	–	–	–	–	–	–	–	–	–	–	–
CN(C)CCN1C(=O)c2cccc3cc(N)cc(c23)C1=O [Amonafide] (10 nM)	112	102	77.2	103	107	115	84.8	–	91.3	99.5	98.4	66.6	110	110	100	110	97.9	108	–	–	–	–	–	–	–	–	–	–	–	–	–	–	–	–	–
Cn1c(CCCC(=O)O)nc2cc(N(CCCl)CCCl)ccc21 [Bendamustine] (10 nM)	–	97.5	123	102	102	101	113	77.1	100	93.8	100	109	112	107	108	100	96	–	–	–	–	–	–	–	–	–	–	–	–	–	–	–	–	–	–
CC(C)C[C@H](NC(=O)[C@H](CCc1ccccc1)NC(=O)CN1CCOCC1)C(=O)N[C@@H](Cc1ccccc1)C(=O)N[C@@H](CC(C)C)C(=O)[C@@]1(C)CO1 [Carfilzomib] (1 nM)	99	99.8	–	102	101	115	113	–	101	89.7	98.6	106	59.7	112	86.9	91.4	74.8	114	–	–	–	–	–	–	–	–	–	–	–	–	–	–	–	–	–
COc1cccc2c1C(=O)c1c(O)c3c(c(O)c1C2=O)C[C@@](O)(C(=O)CO)C[C@@H]3O[C@H]1C[C@H](N)[C@H](O)[C@H](C)O1 [Doxorubicin] (1 nM)	120	99	115	104	112	111	70.6	84.8	101	83.5	96.8	63.7	113	112	95.8	103	105	–	–	–	–	–	–	–	–	–	–	–	–	–	–	–	–	–	–
CC(C)NC[C@@H](C(=O)N1CCN(c2ncnc3c2[C@H](C)C[C@H]3O)CC1)c1ccc(Cl)cc1 [GDC-0068] (10 nM)	90	105	102	94.6	92.9	99	96.3	120	99.9	102	98.5	83	96.6	94.5	110	106	65.6	–	–	–	–	–	–	–	–	–	–	–	–	–	–	–	–	–	–
Nc1ccn([C@@H]2O[C@H](CO)[C@@H](O)C2(F)F)c(=O)n1 [Gemcitabine] (1 nM)	94	63.1	–	93.6	96.9	93.1	83.8	95	84.1	99	107	105	112	96.6	97.3	78.2	–	–	–	–	–	–	–	–	–	–	–	–	–	–	–	–	–	–	–
CC(=O)c1c(C)c2cnc(Nc3ccc(N4CCNCC4)cn3)nc2n(C2CCCC2)c1=O [Palbociclib] (10 nM)	93.3	102	112	93.6	95.1	93.2	97	–	95.2	94.8	102	101	102	95.2	85.9	96.1	115	109	–	–	–	–	–	–	–	–	–	–	–	–	–	–	–	–	–
NS(=O)(=O)OC[C@@H]1C[C@@H](n2ccc3c(N[C@H]4CCc5ccccc54)ncnc32)C[C@@H]1O [Pevonedistat] (10 nM)	114	105	108	102	110	126	84.1	125	105	105	109	115	101	115	112	98	130	–	–	–	–	–	–	–	–	–	–	–	–	–	–	–	–	–	–
COc1cc(F)c(F)c(Nc2ccc(I)cc2F)c1NS(=O)(=O)C1(C[C@H](O)CO)CC1 [Refametinib] (10 nM)	104	100	109	99.8	95.8	92.9	77.1	–	100	98.8	93.5	102	105	96	95.3	106	–	96.2	–	–	–	–	–	–	–	–	–	–	–	–	–	–	–	–	–
CO[C@H]1C[C@@H]2CC[C@@H](C)[C@@](O)(O2)C(=O)C(=O)N2CCCC[C@H]2C(=O)O[C@H]([C@H](C)C[C@@H]2CC[C@@H](OP(C)(C)=O)[C@H](OC)C2)CC(=O)[C@H](C)/C=C(\C)[C@@H](O)[C@@H](OC)C(=O)[C@H](C)C[C@H](C)/C=C/C=C/C=C/1C [Ridaforolimus] (0.1 nM)	107	99.7	125	98.4	106	114	–	113	93.4	102	96.7	107	122	110	90.7	105	–	106	–	–	–	–	–	–	–	–	–	–	–	–	–	–	–	–	–
CN[C@@H]1C[C@H]2O[C@@](C)([C@@H]1OC)n1c3ccccc3c3c4c(c5c6ccccc6n2c5c31)C(=O)N[C@H]4O [UCN-01] (1 nM)	–	–	–	–	–	–	–	–	–	–	–	–	–	–	–	–	–	–	104	97.6	81.8	97.2	108	72.2	103	89	94.1	101	103	97.5	103	122	99.8	87.5	105
CN[C@@H]1C[C@H]2O[C@@](C)([C@@H]1OC)n1c3ccccc3c3c4c(c5c6ccccc6n2c5c31)C(=O)N[C@H]4O [UCN-01] (10 nM)	65.6	93.8	95.2	101	99.7	105	–	64.4	96.7	102	93.2	104	117	109	79.6	98.1	91.7	–	–	–	–	–	–	–	–	–	–	–	–	–	–	–	–	–	–
